Source: ChEMBL document CHEMBL3988442, “University of Dundee, Small-Polar-MMV Screening Library” (2021).

The chains behind the UniProt entries cited, without tags or fusion partners. Residues count along the entry.
UniProt Q8IDJ8, 1-583: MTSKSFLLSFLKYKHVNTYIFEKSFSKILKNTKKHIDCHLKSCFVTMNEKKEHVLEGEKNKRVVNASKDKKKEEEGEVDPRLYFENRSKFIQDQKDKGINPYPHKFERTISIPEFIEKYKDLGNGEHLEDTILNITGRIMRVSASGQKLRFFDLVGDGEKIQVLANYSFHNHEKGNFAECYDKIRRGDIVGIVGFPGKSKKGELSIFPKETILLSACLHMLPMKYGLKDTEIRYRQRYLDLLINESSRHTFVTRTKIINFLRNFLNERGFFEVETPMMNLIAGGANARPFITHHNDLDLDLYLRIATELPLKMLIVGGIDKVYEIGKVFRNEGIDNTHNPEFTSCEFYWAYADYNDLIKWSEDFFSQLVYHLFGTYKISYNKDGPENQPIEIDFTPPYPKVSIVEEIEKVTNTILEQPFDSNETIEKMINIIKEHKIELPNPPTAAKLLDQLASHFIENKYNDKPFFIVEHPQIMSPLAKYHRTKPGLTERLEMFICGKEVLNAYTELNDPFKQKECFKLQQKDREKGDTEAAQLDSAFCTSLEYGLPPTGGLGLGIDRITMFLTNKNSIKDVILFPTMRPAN
UniProt P9WNZ1, whole entry: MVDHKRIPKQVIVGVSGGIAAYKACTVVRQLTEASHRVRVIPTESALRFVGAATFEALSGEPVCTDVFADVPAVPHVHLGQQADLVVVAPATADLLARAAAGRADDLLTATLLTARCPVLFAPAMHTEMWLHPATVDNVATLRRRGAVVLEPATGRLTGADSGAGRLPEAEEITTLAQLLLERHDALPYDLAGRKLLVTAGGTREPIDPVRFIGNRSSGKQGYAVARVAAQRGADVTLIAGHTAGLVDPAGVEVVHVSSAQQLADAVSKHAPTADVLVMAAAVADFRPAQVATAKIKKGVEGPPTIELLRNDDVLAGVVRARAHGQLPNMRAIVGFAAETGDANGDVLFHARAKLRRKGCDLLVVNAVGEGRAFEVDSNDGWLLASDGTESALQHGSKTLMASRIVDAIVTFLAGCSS

PfKRS1: 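Lysine-tRNA ligase, Plasmodium falciparum 3D7 (UniProt Q8IDJ8). Enzyme assay of the cytosolic lysyl-tRNA synthetase in 384-well plates, read by luminescence. Concentration: 30 µM. Higher reads as stronger inhibition, judged from the few compounds that gave an IC50. Size under these conditions: about 69,000 compounds, about 49 of them at 50% or above in at least one test.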
Toxoplasma: 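Assay of Toxoplasma gondii numbers, read through their beta-galactosidase reporter with a colour substrate. Compounds at 10 µM. Higher reads as fewer parasites (inferred from which compounds were picked for retests). Size under these conditions: about 67,000 compounds, about 260 of them at 50% or above in at least one test.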
CoaBC: 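Enzyme assay of CoaBC with a phosphate dye (Biomol Green) read at 650 nm. Target: Coenzyme A biosynthesis protein CoaBC, Mycobacterium tuberculosis (UniProt P9WNZ1). Tested at 30 µM. Higher reads as stronger inhibition, judged from the few compounds that gave an IC50. Most strong results did not repeat in a second test. About 67,000 compounds were tested under these conditions; 0.06% (about 40) showed 50% or more at least once.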

Results are given as percent effect. The record does not define 0% and 100%; most values in the screen are far below 50% and negative numbers occur (in some assays of this library far below -100). The compounds are a random part of those screened.

{"smiles": "CC(C)N1CCOC(Cc2nn3c(Cc4ccccc4)nnc3s2)C1", "stereo": "stereo not given", "PfKRS1": 3.433, "Toxoplasma": -10.43, "CoaBC": 4.853}
{"smiles": "COc1cccc2cc(CNC(=O)N3CCOC(C)(C)C3)oc12", "PfKRS1": 0.4078, "Toxoplasma": -1.855, "CoaBC": 4.724}
{"smiles": "COc1cccc(CC(=O)N2CCc3nc(C(N)=O)sc3CC2)c1", "PfKRS1": 4.07, "Toxoplasma": -15.9, "CoaBC": 3.333}
{"smiles": "O=C(O)[C@@]12CN(c3cnccn3)C[C@@H]1CN(C1CCCC1)C2", "PfKRS1": 1.199, "CoaBC": 6.167}
{"smiles": "O=C(O)C(F)(F)F.[H][C@@]12CCN(Cc3nccs3)[C@]1([H])CC[C@@H](C(=O)N(C)C)O2", "Toxoplasma": -3.324}
{"smiles": "CCOc1ccccc1C(CC(=O)O)NC(C)=O", "stereo": "stereo not given", "PfKRS1": 2.425, "Toxoplasma": 3.258, "CoaBC": 13.94}
{"smiles": "CNc1cncc(C2CCCN2Cc2ccnc(N3CCCC3)n2)n1", "stereo": "stereo not given", "PfKRS1": 0.7397, "Toxoplasma": -9.853, "CoaBC": 1.942}
{"smiles": "CN(Cc1ccco1)C(=O)Nc1cccnc1N1CCCC1", "PfKRS1": 0.7144, "Toxoplasma": -28.94, "CoaBC": 1.173}
{"smiles": "Cc1nc(C)c(CN2CCC(N(C)Cc3noc(C4CC4)n3)C2)s1", "stereo": "stereo not given", "PfKRS1": -2.49, "Toxoplasma": -0.5934, "CoaBC": 3.345}
{"smiles": "CNC(=O)c1cccnc1N1CCN(Cc2ccccc2)C(CCO)C1", "stereo": "stereo not given", "PfKRS1": 1.853, "Toxoplasma": -2.005, "CoaBC": 0.4808}
{"smiles": "COCC[C@]1(O)CCN(S(=O)(=O)c2ccc(C)cc2OC)C[C@H]1C", "PfKRS1": 3.282, "Toxoplasma": 1.126, "CoaBC": 0.9756}
{"smiles": "Cc1[nH]ccc1C(=O)N1CCC2(CC1)c1nc[nH]c1CCN2S(C)(=O)=O", "PfKRS1": 5.184, "Toxoplasma": -3.043, "CoaBC": 2.303}
{"smiles": "CC(C)CN1CCC(c2nc3ccc(NC(C)C)cn3n2)CC1.O=C(O)C(F)(F)F.O=C(O)C(F)(F)F", "Toxoplasma": -10.26}
{"smiles": "Nc1ncc(-c2csc(NC(=O)C[C@H]3COCCN3)n2)cn1", "PfKRS1": 0.9874, "CoaBC": -1.807}
{"smiles": "CC(C)(C)c1nnc(CNc2cc(F)ccc2OCC2CCCO2)o1", "stereo": "stereo not given", "PfKRS1": 1.798, "Toxoplasma": 1.011, "CoaBC": 0.3205}
{"smiles": "O=C1NCC2(CCCN(C(=O)c3ccc4c(c3)OCCO4)CC2)O1", "stereo": "stereo not given", "PfKRS1": 7.283, "Toxoplasma": 3.525, "CoaBC": -1.811}
{"smiles": "COc1c(CNCc2cccc(CS(C)(=O)=O)c2)c(C)nn1C", "PfKRS1": 5.996, "Toxoplasma": 1.436, "CoaBC": 2.017}
{"smiles": "FC(F)(F)c1ccc(CNC[C@H]2COCc3nc4cccnc4n32)cc1", "PfKRS1": 7.19, "Toxoplasma": 2.34, "CoaBC": 5.161}
{"smiles": "COc1ccccc1CN1C[C@@H](F)[C@@H](OCc2nc3ncccc3[nH]2)C1", "PfKRS1": 10.48, "Toxoplasma": 12.67, "CoaBC": 8.841}
{"smiles": "O=C(c1ccc(OCC2CC2)nc1)N1CCCC(n2cccn2)C1", "stereo": "stereo not given", "PfKRS1": 1.613, "Toxoplasma": 9.624, "CoaBC": 4.211}

Some entries from above, unchanged:

SMILES	PfKRS1	Toxoplasma	CoaBC
CNc1cncc(C2CCCN2Cc2ccnc(N3CCCC3)n2)n1 (stereo not given)	0.7397	-9.853	1.942
COc1ccccc1CN1C[C@@H](F)[C@@H](OCc2nc3ncccc3[nH]2)C1	10.48	12.67	8.841